# Test results from PubChem BioAssay AID328 (DTP/NCI, 2004).
# The list is a part of this screen's results and no random one: it gathers some chemical classes. Other doses and runs of a compound may be missing. T/C gives the treated animals as a percentage of the vehicle group. Some entries give survivors of the animals treated and no T/C: the source holds a T/C of zero for them, seemingly a mark for toxic or unscored doses. Some survivor counts are full or nearly so, which does not show that the dose was tolerated: survival well below the control is almost never listed, so the zero probably covers shortened survival too. Survivors were counted at the toxicity check, usually on the fifth day, unless a day is given; later deaths do not show. Schedules are NCI's codes, taken here to give the interval after Q, in days (D) or hours (H), and the number of doses after X. Where survival is the endpoint, the PubChem record calls one and a half times the control and up active, and a quarter to a half above the control has no call in these data; cut-offs in other NCI protocols can differ. Some doses were run more than once; the results are listed from low to high. Some T/C values are followed by the survivors on the day toxicity was checked, most often the fifth; without a count or a note in brackets, all were alive then.
# System: BDF1 mice, P388 leukemia ip, median survival T/C
# Test: NCI In Vivo Anticancer Drug Screen. Data for tumor model P388 Leukemia (intraperitoneal) in B6D2F1 (BDF1) mice
# Settings: T/C endpoint: median survival time, higher T/C = longer survival
# Method: The antitumor activity of compounds was measured in mice bearing transplantable tumors. Survival or tumor size were measured and the results are expressed as the measurement made in the treated group (T) divided by the measurement made in the vehicle treated control group (C). The tumor model used in this assay is P388 Leukemia (intraperitoneal) in B6D2F1 (BDF1) mice
# [1] = dose: 100.0 mg/kg/injection, schedule: Q04DX003 (ip), vehicle: saline with Tween-80
# [2] = dose: 200.0 mg/kg/injection, schedule: Q04DX003 (ip), vehicle: saline with Tween-80
# [3] = dose: 400.0 mg/kg/injection, schedule: Q04DX003 (ip), vehicle: saline with Tween-80
# [4] = dose: 75.0 mg/kg/injection, schedule: Q04DX003 (ip), vehicle: Klucel (hydroxypropylcellulose) (HPC)
# [5] = dose: 4.13 mg/kg/injection, schedule: Q01DX009 (ip), vehicle: saline
# [6] = dose: 8.25 mg/kg/injection, schedule: Q01DX009 (ip), vehicle: saline
# [7] = dose: 16.5 mg/kg/injection, schedule: Q01DX009 (ip), vehicle: saline
# [8] = dose: 100.0 mg/kg/injection, schedule: Q04DX003 (ip), vehicle: saline
# [9] = dose: 200.0 mg/kg/injection, schedule: Q04DX003 (ip), vehicle: saline
# [10] = dose: 400.0 mg/kg/injection, schedule: Q04DX003 (ip), vehicle: saline
smiles,measurement,setting,value
O=C(O)Cc1ccc(N(CCCl)CCCl)cc1,T/C,"dose: 4.0 mg/kg/injection, schedule: Q04DX003 (ip), vehicle: saline with Tween-80",140 % of control
same,T/C,"dose: 4.12 mg/kg/injection, schedule: Q04DX003 (ip), vehicle: saline with Tween-80",145 % of control
same,T/C,"dose: 6.0 mg/kg/injection, schedule: Q04DX003 (ip), vehicle: saline with Tween-80",150 % of control
same,T/C,"dose: 6.25 mg/kg/injection, schedule: Q04DX003 (ip), vehicle: saline with Tween-80",190 % of control
same,T/C,"dose: 9.0 mg/kg/injection, schedule: Q04DX003 (ip), vehicle: saline with Tween-80",154 % of control
same,T/C,"dose: 9.3 mg/kg/injection, schedule: Q04DX003 (ip), vehicle: saline with Tween-80",190 % of control
same,survivor count,[1],1 of 6
same,survivor count,[2],0 of 6
same,survivor count,[3],0 of 6
CN(c1ccc(/C=C/c2ccccc2)cc1)P(=O)(Cl)Cl,T/C,"dose: 12.5 mg/kg/injection, schedule: Q01DX009 (ip), vehicle: saline with Tween-80",115 % of control
same,T/C,"dose: 25.0 mg/kg/injection, schedule: Q01DX009 (ip), vehicle: saline with Tween-80",113 % of control
same,T/C,"dose: 50.0 mg/kg/injection, schedule: Q01DX009 (ip), vehicle: saline with Tween-80, evaluated on day 30",106 % of control
same,T/C,"dose: 50.0 mg/kg/injection, schedule: Q01DX009 (ip), vehicle: saline with Tween-80, evaluated on day 35",109 % of control
same,survivor count,"dose: 100.0 mg/kg/injection, schedule: Q01DX009 (ip), vehicle: saline with Tween-80",6 of 6
same,survivor count,"dose: 200.0 mg/kg/injection, schedule: Q01DX009 (ip), vehicle: saline with Tween-80",0 of 6
O=P(Cl)(Nc1ccccc1)Nc1ccccc1,T/C,[1],100 % of control
same,T/C,[2],122 % of control
same,T/C,[3],100 % of control
NC(=O)c1[nH]cnc1/N=N\N(CCCl)CCCl,T/C,"dose: 3.13 mg/kg/injection, schedule: Q01DX010 (ip), vehicle: carboxymethylcellulose (CMC)",109 % of control
same,T/C,"dose: 6.25 mg/kg/injection, schedule: Q01DX010 (ip), vehicle: carboxymethylcellulose (CMC)",109 % of control
same,T/C,"dose: 12.5 mg/kg/injection, schedule: Q01DX010 (ip), vehicle: carboxymethylcellulose (CMC)",127 % of control
same,T/C,"dose: 25.0 mg/kg/injection, schedule: Q01DX010 (ip), vehicle: carboxymethylcellulose (CMC)",181 % of control
same,T/C,"dose: 25.0 mg/kg/injection, schedule: Q01DX010 (ip), vehicle: saline",183 % of control
same,T/C,"dose: 50.0 mg/kg/injection, schedule: Q01DX010 (ip), vehicle: saline",241 % of control
same,T/C,"dose: 100.0 mg/kg/injection, schedule: Q01DX010 (ip), vehicle: saline",295 % of control
same,T/C,"dose: 200.0 mg/kg/injection, schedule: Q01DX001 (ip), vehicle: other",254 and 336 % of control
same,T/C,"dose: 200.0 mg/kg/injection, schedule: Q01DX010 (ip), vehicle: saline",91 % of control
same,T/C,"dose: 300.0 mg/kg/injection, schedule: Q01DX001 (ip), vehicle: other",331 and 451 % of control
same,T/C,"dose: 400.0 mg/kg/injection, schedule: Q01DX001 (ip), vehicle: other",524 and 527 % of control
CCOC(=O)COc1ccc(N(CCCl)CCCl)cc1,T/C,"dose: 0.92 mg/kg/injection, schedule: Q04DX003 (ip), vehicle: Klucel (hydroxypropylcellulose) (HPC)",109 % of control
same,T/C,"dose: 1.3 mg/kg/injection, schedule: Q04DX003 (ip), vehicle: Klucel (hydroxypropylcellulose) (HPC)",122 % of control
same,T/C,"dose: 2.1 mg/kg/injection, schedule: Q04DX003 (ip), vehicle: Klucel (hydroxypropylcellulose) (HPC)",125 % of control
same,T/C,"dose: 3.1 mg/kg/injection, schedule: Q04DX003 (ip), vehicle: Klucel (hydroxypropylcellulose) (HPC)",125 % of control
same,T/C,"dose: 4.8 mg/kg/injection, schedule: Q04DX003 (ip), vehicle: Klucel (hydroxypropylcellulose) (HPC)",180 % of control
same,T/C,"dose: 7.2 mg/kg/injection, schedule: Q04DX003 (ip), vehicle: Klucel (hydroxypropylcellulose) (HPC)",219 % of control
same,T/C,"dose: 11.0 mg/kg/injection, schedule: Q04DX003 (ip), vehicle: Klucel (hydroxypropylcellulose) (HPC)",200 % of control
same,T/C,"dose: 16.0 mg/kg/injection, schedule: Q04DX003 (ip), vehicle: Klucel (hydroxypropylcellulose) (HPC)",212 % of control
same,T/C,"dose: 33.0 mg/kg/injection, schedule: Q04DX003 (ip), vehicle: Klucel (hydroxypropylcellulose) (HPC)",186 and 240 % of control
same,T/C,"dose: 50.0 mg/kg/injection, schedule: Q04DX003 (ip), vehicle: Klucel (hydroxypropylcellulose) (HPC)",95 and 163 % of control
same,T/C,[4],127 % of control
same,survivor count,[4],4 of 6
O[C@H](CNCCCl)[C@@H](O)CNCCCl,T/C,"dose: 2.2 mg/kg/injection, schedule: Q04DX003 (ip), vehicle: saline",127 % of control
same,T/C,"dose: 3.3 mg/kg/injection, schedule: Q04DX003 (ip), vehicle: saline",150 % of control
same,T/C,[5],245 % of control
same,survivor count,[5],6 of 6
same,T/C,"dose: 5.0 mg/kg/injection, schedule: Q04DX003 (ip), vehicle: saline",181 % of control
same,T/C,"dose: 5.5 mg/kg/injection, schedule: Q01DX009 (ip), vehicle: saline",218 % of control
same,T/C,"dose: 5.56 mg/kg/injection, schedule: Q04DX003 (ip), vehicle: saline",172 % of control
same,T/C,"dose: 7.5 mg/kg/injection, schedule: Q04DX003 (ip), vehicle: saline",186 % of control
same,T/C,[6],272 % of control
same,survivor count,[6],6 of 6
same,T/C,"dose: 8.3 mg/kg/injection, schedule: Q01DX009 (ip), vehicle: saline",195 % of control
same,T/C,"dose: 8.33 mg/kg/injection, schedule: Q04DX003 (ip), vehicle: saline",200 % of control
same,T/C,"dose: 12.5 mg/kg/injection, schedule: Q01DX009 (ip), vehicle: saline",222 % of control
same,T/C,"dose: 12.5 mg/kg/injection, schedule: Q04DX003 (ip), vehicle: saline",218 and 250 % of control
same,T/C,[7],272 % of control
same,survivor count,[7],6 of 6
same,T/C,"dose: 18.7 mg/kg/injection, schedule: Q01DX009 (ip), vehicle: saline",118 % of control
same,T/C,"dose: 18.7 mg/kg/injection, schedule: Q04DX003 (ip), vehicle: saline",263 % of control
same,T/C,"dose: 25.0 mg/kg/injection, schedule: Q04DX003 (ip), vehicle: saline",277 % of control
same,T/C,"dose: 50.0 mg/kg/injection, schedule: Q04DX003 (ip), vehicle: saline",100 and 218 % of control
same,T/C,[8],90 % of control
same,survivor count,[9],4 of 6
CC(=O)N(CCCl)CCCl,T/C,[8],"136, 140, 145 % of control"
same,T/C,[9],"145, 186, 190 % of control"
same,T/C,"dose: 300.0 mg/kg/injection, schedule: Q04DX003 (ip), vehicle: saline",186 and 218 % of control
same,survivor count,[10],4 of 6
N/C(=N/[N+](=O)[O-])N(CCBr)N=O.NC1=CCCN1[N+](=O)[O-],T/C,"dose: 50.0 mg/kg/injection, schedule: Q01DX009 (ip), vehicle: alcohol",100 % of control
same,T/C,"dose: 100.0 mg/kg/injection, schedule: Q01DX009 (ip), vehicle: alcohol",109 % of control
same,T/C,[8],110 % of control
same,T/C,"dose: 200.0 mg/kg/injection, schedule: Q01DX009 (ip), vehicle: alcohol",104 % of control [5 of 6 alive]
same,T/C,[9],105 % of control
same,survivor count,[10],3 of 6
O=[N+]([O-])c1ccc(Nc2ccc(Oc3ccc([N+](=O)[O-])cc3[N+](=O)[O-])cc2)c([N+](=O)[O-])c1,T/C,"dose: 100.0 mg/kg/injection, schedule: Q01DX009 (ip), vehicle: Klucel (hydroxypropylcellulose) (HPC)",100 % of control
same,T/C,"dose: 200.0 mg/kg/injection, schedule: Q01DX009 (ip), vehicle: Klucel (hydroxypropylcellulose) (HPC)",95 % of control [4 of 6 alive]
same,T/C,"dose: 400.0 mg/kg/injection, schedule: Q01DX009 (ip), vehicle: Klucel (hydroxypropylcellulose) (HPC)",86 % of control
